Substitutions are numbered along the chain they refer to. These are yes or no findings as the source states them, for the method shown. Some binding calls cover weakened binding; strength is not graded here.
B1: H-ABU 12 (antibody, V domains shown)
VH: QVQLVQSGAEVKKPGASVKVSCKASGYTFTNYWMQWVRQAPGQGLEWMGMIDPSDSESRLNQKFKDRVTMTRDTSTSTVYMELSSLRSEDTAVYYCARRGSPMITSFAYWGQGTLVTVSS
VL: DIQMTQSPSSLSASVGDRVTITCRASKNIGKYLAWFQQKPGKAPKSLIYSGSTLQSGVPSRFSGSGSGTDFTLTISSLQPEDFATYYCQQHNEYPYTFGGGTKVEIK
B2: H-ABU 13 (antibody, V domains shown)
VH: B1 VH
VL: B1 VL with I2V, M4I
B3: H-ABU 14 (antibody, V domains shown)
VH: B1 VH
VL: B1 VL with V58I
B4: H-ABU 15 (antibody, V domains shown)
VH: B1 VH
VL: B1 VL with I2V, M4I, V58I
B5: H-ABU 16 (antibody, V domains shown)
VH: B1 VH
VL: B1 VL with I2V, M4I, A43T, P44N, S46L, V58I
B6: H-ABU 17 (antibody, V domains shown)
VH: B1 VH with A24T, T28S, V79A
VL: B1 VL
B7: H-ABU 18 (antibody, V domains shown)
VH: B1 VH with A24T, T28S, V79A
VL: B1 VL with I2V, M4I
B8: H-ABU 19 (antibody, V domains shown)
VH: B1 VH with A24T, T28S, V79A
VL: B1 VL with V58I
B9: H-ABU 20 (antibody, V domains shown)
VH: B1 VH with A24T, T28S, V79A
VL: B1 VL with I2V, M4I, V58I
B10: H-ABU 21 (antibody, V domains shown)
VH: B1 VH with A24T, T28S, V79A
VL: B1 VL with I2V, M4I, A43T, P44N, S46L, V58I
B11: H-ABU 22 (antibody, V domains shown)
VH: B1 VH with M48I, V68A, M70L, R72V
VL: B1 VL
B12: H-ABU 23 (antibody, V domains shown)
VH: B1 VH with M48I, V68A, M70L, R72V
VL: B1 VL with I2V, M4I
B13: H-ABU 24 (antibody, V domains shown)
VH: B1 VH with M48I, V68A, M70L, R72V
VL: B1 VL with V58I
B14: H-ABU 25 (antibody, V domains shown)
VH: B1 VH with M48I, V68A, M70L, R72V
VL: B1 VL with I2V, M4I, V58I
B15: H-ABU 26 (antibody, V domains shown)
VH: B1 VH with M48I, V68A, M70L, R72V
VL: B1 VL with I2V, M4I, A43T, P44N, S46L, V58I
B16: H-ABU 27 (antibody, V domains shown)
VH: B1 VH with A24T, T28S, M48I, V68A, M70L, R72V, V79A
VL: B1 VL

Sequences of proteins named here, by UniProt entry; tags and fusion partners are left off. A change or cut given only in a name is not applied to a line headed by its entry.
UniProt Q08722: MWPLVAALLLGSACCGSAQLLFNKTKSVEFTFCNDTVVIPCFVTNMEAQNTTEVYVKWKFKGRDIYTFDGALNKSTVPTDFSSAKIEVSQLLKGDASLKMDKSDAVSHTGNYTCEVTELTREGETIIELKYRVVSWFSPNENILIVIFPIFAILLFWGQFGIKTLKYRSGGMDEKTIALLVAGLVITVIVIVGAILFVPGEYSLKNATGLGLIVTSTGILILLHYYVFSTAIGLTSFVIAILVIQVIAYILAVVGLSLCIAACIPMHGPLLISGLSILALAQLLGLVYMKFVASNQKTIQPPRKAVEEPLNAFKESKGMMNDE

target: CD47 protein (construct not stated; SPR antigen, CD47 coated ELISA plates) (Homo sapiens (Human)) (UniProt Q08722); assay: EC50 as grade, ELISA on CD47 coated plates; legend +: <0.06 µg/mL

binding, binds:
B1
B2
B3
B4
B5
B6
B7
B8
B9
B10
B11
B12
B13
B14
B15
B16

target: CD47 protein (construct not stated; SPR antigen, CD47 coated ELISA plates) (Homo sapiens (Human)) (UniProt Q08722); assay: ELISA, CD47 coated plates, OD at 450

binding, binds:
B1
B2
B3
B4
B5
B6
B7
B8
B9
B10
B11
B12
B13
B14
B15
B16

Reference: patent US20200247886A1
